# Measured values from PubChem BioAssay AID1487 (National Center for Advancing Translational Sciences (NCATS), 2009).
# The other results are listed elsewhere or left out. Shown are side measurements of this screen, not its main read-out; they come without a call. Compounds called inactive in the main read-out are mostly missing here. Potencies come from curve fits of mixed quality, noted in brackets.
# Test: qHTS Assay for Modulators of Lamin A Splicing
# Details: HeLa LMNA splicing GFP/RFP minigene ratio, 48 h
# In short: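 Read-out is the ratio of GFP to DsRed2 object intensity, acquired by 488 nm laser-scanning cytometry on HeLa lamin A-EGFP minigene reporter cells. Compound incubation 48 hrs at 37 °C in Opti-MEM with 2% FBS; DMSO 0.5% final.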
# [1] = measured here: GFP splicing reporter channel
# [2] = measured here: RFP viability control channel
Structure (SMILES),AC50 [1],AC50 [2]
CCC(C)C(=O)Nc1cc(C(=O)OC)ccc1C(=O)OC (configuration not stated),"5.62 µM [falling, single point]","5.62 µM [falling, single point]"
CCOC(=O)c1c(C)[nH]c(C(=O)OCCOc2ccccc2C)c1C,,"0.355 µM [rising, full curve, poor fit]"
COc1ccc(/C=C/C(=O)c2ccc(NC(=O)c3cccs3)cc2)cc1OC,"17.8 µM [falling, single point]","35.5 µM [falling, single point]"
O=C(Nn1c(C2CCCCC2)nc2ccccc2c1=O)c1ccc([N+](=O)[O-])cc1Cl,"10 µM [rising, single point]","12.6 µM [rising, single point]"
Cc1cccc(/C=N/Nc2ccc3ccccc3n2)c1,,"4.47 µM [rising, partial curve, poor fit]"
COc1ccc(NC(=O)CC2C(=O)N(c3ccc(Cl)cc3)C(=S)N2CCc2ccccn2)cc1 (configuration not stated),"2.82 µM [falling, single point]",
COc1ccc2[nH]c(C)c(CCNc3ccc(C(F)(F)F)cc3[N+](=O)[O-])c2c1,"14.1 µM [rising, single point]","22.4 µM [rising, single point]"
O=C1c2cccc3c(N4CCCCC4)ccc(c23)C(=O)N1c1ccc(O)cc1,"0.141 µM [rising, full curve, poor fit]","0.0224 µM [rising, full curve]"
Cc1cccc(CSc2ncc(CO)n2Cc2ccc(F)cc2)c1,"0.0251 µM [rising, full curve, poor fit]",
O=[N+]([O-])c1cc(S(=O)(=O)Nc2cccc(C(F)(F)F)c2)ccc1-n1nnc2ccccc21,,"11.2 µM [rising, partial curve]"
COc1cc(Br)c(CCNC(=O)c2ccco2)cc1OC,"0.0316 µM [falling, full curve, poor fit]","0.141 µM [falling, full curve, poor fit]"
Clc1ccc(CSCCc2ccncc2)cc1,"35.5 µM [rising, single point]","31.6 µM [rising, single point]"
COCCn1c(SCC(=O)Nc2ncc(C)s2)nc2sc3c(c2c1=O)CCC3,"15.8 µM [rising, single point]","25.1 µM [rising, single point]"
CN(C)c1ccc(/C=C/c2ccc3ccccc3[n+]2C)cc1,"35.5 µM [falling, single point]","1.78 µM [rising, full curve]"
COc1ccc(NC(=S)NCc2ccc3c(c2)cc(C)n3C)cc1,,"17.8 µM [rising, single point]"
CCC1C(C#N)=C(SC)NC2=C1C(=O)CC(C)(C)C2 (configuration not stated),"15.8 µM [rising, single point]","22.4 µM [rising, partial curve]"

# Quoted at random: two compounds from above
Structure (SMILES),AC50 [1],AC50 [2]
CCOC(=O)c1c(C)[nH]c(C(=O)OCCOc2ccccc2C)c1C,,"0.355 µM [rising, full curve, poor fit]"
Cc1cccc(/C=N/Nc2ccc3ccccc3n2)c1,,"4.47 µM [rising, partial curve, poor fit]"

# The results go on.

Structure (SMILES),AC50 [1],AC50 [2]
COc1ccccc1N(C)S(=O)(=O)c1ccc(C(=O)OC(C)C(=O)NCc2ccc3c(c2)OCO3)cc1 (configuration not stated),,"6.31 µM [rising, partial curve]"
NS(=O)(=O)c1ccc(CCNc2ncnc3sccc23)cc1,"15.8 µM [rising, partial curve]","7.94 µM [rising, partial curve]"
CCCc1ncc(C[n+]2ccccc2C)c(N)n1,"0.0251 µM [rising, full curve, poor fit]","0.0112 µM [rising, full curve]"
Cn1nc(C(F)(F)F)c(C(=O)Nc2cccc(C(F)(F)F)c2)c1SCc1ccc(Cl)cc1,,"35.5 µM [falling, single point]"
Cc1cc(C)c(NC(=O)c2cc(CN3CCOCC3)on2)c(C)c1,"0.0178 µM [falling, full curve, poor fit]","6.31 µM [falling, partial curve, poor fit]"
Clc1ccc(CCNc2ncnc3nc[nH]c23)cc1,"0.00562 µM [falling, full curve, poor fit]","0.0447 µM [falling, full curve]"
C=CC(=O)NCC1OCCc2ccccc21 (configuration not stated),,"12.6 µM [falling, partial curve, poor fit]"
COc1ccc(N(Cc2ccccc2)C(=O)c2ccccc2[N+](=O)[O-])cc1,"31.6 µM [rising, single point]","35.5 µM [rising, single point]"
N#Cc1c(NC(=O)C2CC(c3c(F)cccc3Cl)=NO2)sc2c1CCC2 (configuration not stated),"14.1 µM [rising, single point]","22.4 µM [rising, partial curve]"
CCOC(=O)c1cc(C(=O)OCC)c2cc(Br)ccc2n1,"0.158 µM [rising, full curve, poor fit]",
CCOC(=O)N/N=C/c1cccc(Cl)c1Cl,"3.16 µM [rising, single point]","2.24 µM [rising, single point]"
CCCCCCCCCCCCCCCC(=O)NCC(COP(=O)([O-])OCC[N+](C)(C)C)OCC (configuration not stated),"5.62 µM [falling, full curve]","3.98 µM [falling, full curve]"
CS(=O)(=O)N1N=C(c2ccccc2)CC1c1ccc2c(c1)OCO2 (configuration not stated),,"20 µM [rising, single point]"
Cc1ccccc1-n1c(SCC(=O)N/N=C/c2sccc2C)nc2ccccc2c1=O,"1.58 µM [rising, full curve, poor fit]",
Cc1ccc(N(CC(=O)NCCc2ccc(F)cc2)S(=O)(=O)c2ccc(Cl)c([N+](=O)[O-])c2)c(C)c1,"35.5 µM [falling, single point]","35.5 µM [falling, single point]"
CCc1ccc(-c2[nH]c3c(c2-c2c(-n4cccc4)n(C)c(=O)[nH]c2=O)c(=O)[nH]c(=O)n3C)cc1,"2.82 µM [falling, partial curve]","3.98 µM [falling, partial curve, poor fit]"
